Source: paper PMC10538557, “Vps60 initiates alternative ESCRT-III filaments” (The Journal of Cell Biology, 2023)
These are yes or no findings as the source states them, for the method shown. Some binding calls cover weakened binding; strength is not graded here. Tags and fused reporters may be left off the sequences shown.

Molecular target: Vps60-HA (S. cerevisiae) (UniProt Q03390)
Test: rate-zonal density gradient centrifugation; membrane fraction of yeast solubilized in PBS with 0.5% Tween-20, 10–40% glycerol gradient, 100,000× g for 4 h at 4°C, fractions blotted with anti-HA and anti-Snf7; wildtype, VPS4-deleted and vps4 E233Q strains

B1: Vps60-HA (protein, UniProt Q03390 1-229)
chain: MNRIFGYGNKKSHDQLLQESNQSMNQAQQSLSNRISQLDTQIAQLNFQLQNIQKNLQRSNNKQPSLRKQALKILNKRKQLENMKDSLDSQSWSMTQAQLTNDNLQNTMITINALKQTNNAMKAQYGKINIDKLQDMQDEMLDLIEQGDELQEVLAMNNNSGELDDISDAELDAELDALAQEDFTLPTSENSLGNDMPSYLLGANAPPAFIDEEPNLDTEDKNKALESAQ
**Q.** B1 was tested. Which binding did it give?
**A.** binds
